From paper PMC4974620 come the findings set out here.

The assay concerns the target T1, yeast H/KDEL receptor Erd2p (S. cerevisiae) (UniProt P18414).
T1 sequence: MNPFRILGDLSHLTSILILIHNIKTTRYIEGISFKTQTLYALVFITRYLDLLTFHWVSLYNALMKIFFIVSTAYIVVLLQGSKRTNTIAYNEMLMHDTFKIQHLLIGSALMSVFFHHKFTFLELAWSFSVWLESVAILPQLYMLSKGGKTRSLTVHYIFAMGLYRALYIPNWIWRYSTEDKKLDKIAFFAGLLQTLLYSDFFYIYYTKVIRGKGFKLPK
Kind of assay: depletion of toxin from the supernatant by spheroplasts (residual toxin activity on methylene blue agar); yeast spheroplasts (1 x 10^5 to 1 x 10^6 cells/ml; Δerd2, single copy ERD2 or multi copy pERD2) in McIlvaine buffer pH 4.7 with 0.8 M sorbitol, K28 toxin 1 μg/ml, 60 min at 4 °C; residual toxin activity in the cell free supernatant tested against the sensitive strain 192.2d.

These are yes or no findings as the source states them, for the method shown. Binding calls can cover weak binding; strength is not graded here.

As to Yeast killer toxin K28 (complex), the binding entry is recorded as “binds”.
